According to patent US9222949B2, “Salvinorin immunoassay” (priority 2009, dated 2015):

Tested on: antisera generated to Immunogen I (hapten A-BTG)
Assay: competitive microtiter plate assay (ELISA) for salvinorin A and salvinorin B
Assay type: binding, sheep
[1] = Conjugate I, calibrator 0.16 ng/ml
[2] = Conjugate I, calibrator 0.31 ng/ml
[3] = Conjugate I, calibrator 0.63 ng/ml
[4] = Conjugate I, calibrator 1.25 ng/ml
[5] = Conjugate I, calibrator 2.50 ng/ml
[6] = Conjugate I, calibrator 5.00 ng/ml
[7] = Conjugate I, calibrator 10.00 ng/ml
[8] = Conjugate II, calibrator 0.16 ng/ml
[9] = Conjugate II, calibrator 0.31 ng/ml
[10] = Conjugate II, calibrator 0.63 ng/ml
[11] = Conjugate II, calibrator 1.25 ng/ml
[12] = Conjugate II, calibrator 2.50 ng/ml
[13] = Conjugate II, calibrator 5.00 ng/ml
[14] = Conjugate II, calibrator 10.00 ng/ml

Structure (SMILES) | AS (analytical sensitivity) (Conjugate I, A450 of zero standard minus 2 SD, 20 replicates) | A450 [1] | A450 [2] | A450 [3] | A450 [4] | A450 [5] | A450 [6] | A450 [7] | FS (functional sensitivity) (Conjugate I, lowest concentration with inter-assay CV <20%, 20 replicates) | A450 [8] | A450 [9] | A450 [10] | A450 [11] | A450 [12] | A450 [13] | A450 [14]
COC(=O)[C@@H]1C[C@H](OC(C)=O)C(=O)[C@H]2[C@@]1(C)CC[C@H]1C(=O)O[C@H](c3ccoc3)C[C@]21C [Salvinorin A] | 0.013 ng/mL | 1.255 | 0.970 | 0.724 | 0.520 | 0.373 | 0.272 | 0.180 | 0.045 ng/mL | 1.540 | 1.221 | 0.947 | 0.716 | 0.481 | 0.333 | 0.217
COC(=O)C1CC(O)C(=O)C2C1(C)CCC1C(=O)OC(c3ccoc3)CC12C (stereo not drawn) [Salvinorin B] |  | 1.700 | 1.502 | 1.428 | 1.275 | 1.020 | 0.867 | 0.677 |  | 1.993 | 1.837 | 1.675 | 1.433 | 1.189 | 1.005 | 0.779
